The target in test [1] is T1, KLHL6 wild type, C-terminal Strep-HA tag (KLHL6-strHA) (human) (UniProt Q8WZ60).
T1 sequence: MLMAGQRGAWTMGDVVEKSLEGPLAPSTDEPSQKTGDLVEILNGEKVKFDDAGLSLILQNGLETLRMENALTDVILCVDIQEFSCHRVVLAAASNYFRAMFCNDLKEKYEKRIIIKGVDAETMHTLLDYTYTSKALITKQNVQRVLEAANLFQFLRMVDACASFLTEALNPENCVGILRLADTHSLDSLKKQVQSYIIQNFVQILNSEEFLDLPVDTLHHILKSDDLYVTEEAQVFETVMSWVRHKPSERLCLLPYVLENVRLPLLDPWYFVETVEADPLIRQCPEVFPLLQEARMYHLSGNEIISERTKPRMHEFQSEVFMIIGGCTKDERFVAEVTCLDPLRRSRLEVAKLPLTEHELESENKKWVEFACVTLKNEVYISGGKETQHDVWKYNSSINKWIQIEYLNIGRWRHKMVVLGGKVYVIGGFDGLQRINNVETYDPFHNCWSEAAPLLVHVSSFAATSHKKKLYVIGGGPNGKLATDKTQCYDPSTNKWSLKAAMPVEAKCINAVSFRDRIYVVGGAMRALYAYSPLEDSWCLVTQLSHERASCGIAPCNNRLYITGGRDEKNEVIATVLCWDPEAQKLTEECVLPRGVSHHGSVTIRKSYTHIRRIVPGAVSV
The test can be described thus: affinity purification with mass spectrometry; C-terminally Strep-HA-tagged KLHL6 baits stably expressed in SuDHL5; lysis in 0.5% IGEPAL, 50 mmol/L HEPES pH 8.0, 150 mmol/L NaCl, 5 mmol/L EDTA; one-step purification on Strep-Tactin Sepharose; EmGFP controls; SAINT and DESeq2; also done 60 seconds after BCR cross-linking with anti-human IgM F(ab')2 or control goat IgG.

Amino acid sequences for entries named in this document (tags omitted).
UniProt Q8IXQ5: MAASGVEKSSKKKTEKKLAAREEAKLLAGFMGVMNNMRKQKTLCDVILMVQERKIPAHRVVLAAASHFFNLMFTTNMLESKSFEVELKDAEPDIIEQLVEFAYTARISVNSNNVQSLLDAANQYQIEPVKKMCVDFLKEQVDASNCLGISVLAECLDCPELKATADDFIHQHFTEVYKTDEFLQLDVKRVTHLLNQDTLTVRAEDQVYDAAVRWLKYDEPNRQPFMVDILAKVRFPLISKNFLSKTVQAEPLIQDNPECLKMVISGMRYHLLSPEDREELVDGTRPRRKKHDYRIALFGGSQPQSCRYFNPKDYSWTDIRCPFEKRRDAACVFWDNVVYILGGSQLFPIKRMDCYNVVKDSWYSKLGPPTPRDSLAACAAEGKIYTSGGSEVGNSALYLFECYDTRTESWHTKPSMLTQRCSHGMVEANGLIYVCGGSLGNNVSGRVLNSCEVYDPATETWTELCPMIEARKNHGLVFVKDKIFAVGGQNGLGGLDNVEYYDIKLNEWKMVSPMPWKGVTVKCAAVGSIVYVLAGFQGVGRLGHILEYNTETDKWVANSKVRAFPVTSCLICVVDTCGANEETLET

In test [2] the target is T2, KLHL6 L65P, C-terminal Strep-HA tag (human) (UniProt Q8WZ60).
T2 sequence: T1 sequence with L65P
The description is as above.

Test [3] concerns the target T3, KLHL6 L90F, C-terminal Strep-HA tag (human) (UniProt Q8WZ60).
T3 sequence: T1 sequence with L90F
The description is as above.

Test [4] addresses T4, KLHL6 E568K, C-terminal Strep-HA tag (human) (UniProt Q8WZ60).
T4 sequence: T1 sequence with E568K
The test is described as above.

Test [5] addresses T5, KLHL6 wild type fused to C-terminal BioID2 (human) (UniProt Q8WZ60).
T5 sequence: T1 sequence
The test can be described thus: proximity labelling; KLHL6-BioID2 interactome in the ABC cell line U2932; mass spectrometry.

For test [6], the target named is T5, KLHL6 wild type fused to C-terminal BioID2 (human). The test can be described thus: proximity labelling; KLHL6 baits with C-terminal BioID2 stably expressed in SuDHL5, no added biotin; lysis with 0.1% SDS; biotinylated proteins purified on Strep-Tactin Sepharose; mass spectrometry; BioID2-tagged EmGFP controls.
The target in test [7] is T1, KLHL6 wild type, C-terminal Strep-HA tag (KLHL6-strHA) (human). Put plainly: affinity purification with mass spectrometry; C-terminally Strep-HA-tagged KLHL6 baits stably expressed in SuDHL5; lysis in 0.5% IGEPAL, 50 mmol/L HEPES pH 8.0, 150 mmol/L NaCl, 5 mmol/L EDTA; one-step purification on Strep-Tactin Sepharose; EmGFP controls; SAINT and DESeq2; also done 60 seconds after BCR cross-linking with anti-human IgM F(ab')2 or control goat IgG. The source holds these as a separate data set.

Test [8] deals with T3, KLHL6 L90F, C-terminal Strep-HA tag (human). The test is described as above. This is another data set of the same source.
Test [9] has as its target T4, KLHL6 E568K, C-terminal Strep-HA tag (human). Described as above. This is another data set of the same source.

Residue numbers refer to the chain shown, from its start. Read-outs that look alike come from different tables or passages of the source. These are yes or no findings as the source states them, for the method shown. In cells and extracts the contact can be indirect. These calls come from enrichment with a bait or labelling near it, and not all partners need be listed. For part of these data: No binding means not detected with the bait. Where a sequence is shown, tags or fusion partners need not be part of it.

With KLHL7 (from UniProt Q8IXQ5 1-586), the binding entry in test [1] is given as “binds”; in [2], “no binding”; in test [3] it was “no binding”; in test [4], “binds”.

B1: adapter protein BANK1 (protein, UniProt Q8NDB2 1-785)
chain: MLPAAPGKGLGSPDPAPCGPAPPGNTKDIIMIYEEDAEEWALYLTEVFLHVVKREAILLYRLENFSFRHLELLNLTSYKCKLLILSNSLLRDLTPKKCQFLEKILHSPKSVVTLLCGVKSSDQLYELLNISQSRWEISTEQEPEDYISVIQSIIFKDSEDYFEVNIPTDLRAKHSGEISERKEIEELSEASRNTIPLAVVLPTEIPCENPGEIFIILRDEVIGDTVEVEFTSSNKRIRTRPALWNKKVWCMKALEFPAGSVHVNVYCDGIVKATTKIKYYPTAKAKECLFRMADSGESLCQNSIEELDGVLTSIFKHEIPYYEFQSLQTEICSQNKYTHFKELPTLLHCAAKFGLKNLAIHLLQCSGATWASKMKNMEGSDPAHIAERHGHKELKKIFEDFSIQEIDINNEQENDYEEDIASFSTYIPSTQNPAFHHESRKTYGQSADGAEANEMEGEGKQNGSGMETKHSPLEVGSESSEDQYDDLYVFIPGADPENNSQEPLMSSRPPLPPPRPVANAFQLERPHFTLPGTMVEGQMERSQNWGHPGVRQETGDEPKGEKEKKEEEKEQEEEEDPYTFAEIDDSEYDMILANLSIKKKTGSRSFIINRPPAPTPRPTSIPPKEETTPYIAQVFQQKTARRQSDDDKFCGLPKKQDRARIESPAFSTLRGCLTDGQEELILLQEKVKNGKMSMDEALEKFKHWQMGKSGLEMIQQEKLRQLRDCIIGKRPEEENVYNKLTIVHHPGGKETAHNENKFYNVHFSNKLPARPQVEKEFGFCCKKDH
For the molecule B1, the binding entry in test [5], in test [6], in test [7], in [8] and in test [9] was “binds” in each case.

For the origin of these results see PMC11369598.
